Measured values taken from publication PMC4935465.
These are yes or no findings as the source states them, for the method shown. For some of these results: Binding seen in cells or lysates may run through a third protein. Some binding calls cover weakened binding; strength is not graded here. Tags and fused reporters may be left off the sequences shown.

T1: Vps8-HA (Drosophila melanogaster) (UniProt Q9VRX2)
T1 sequence: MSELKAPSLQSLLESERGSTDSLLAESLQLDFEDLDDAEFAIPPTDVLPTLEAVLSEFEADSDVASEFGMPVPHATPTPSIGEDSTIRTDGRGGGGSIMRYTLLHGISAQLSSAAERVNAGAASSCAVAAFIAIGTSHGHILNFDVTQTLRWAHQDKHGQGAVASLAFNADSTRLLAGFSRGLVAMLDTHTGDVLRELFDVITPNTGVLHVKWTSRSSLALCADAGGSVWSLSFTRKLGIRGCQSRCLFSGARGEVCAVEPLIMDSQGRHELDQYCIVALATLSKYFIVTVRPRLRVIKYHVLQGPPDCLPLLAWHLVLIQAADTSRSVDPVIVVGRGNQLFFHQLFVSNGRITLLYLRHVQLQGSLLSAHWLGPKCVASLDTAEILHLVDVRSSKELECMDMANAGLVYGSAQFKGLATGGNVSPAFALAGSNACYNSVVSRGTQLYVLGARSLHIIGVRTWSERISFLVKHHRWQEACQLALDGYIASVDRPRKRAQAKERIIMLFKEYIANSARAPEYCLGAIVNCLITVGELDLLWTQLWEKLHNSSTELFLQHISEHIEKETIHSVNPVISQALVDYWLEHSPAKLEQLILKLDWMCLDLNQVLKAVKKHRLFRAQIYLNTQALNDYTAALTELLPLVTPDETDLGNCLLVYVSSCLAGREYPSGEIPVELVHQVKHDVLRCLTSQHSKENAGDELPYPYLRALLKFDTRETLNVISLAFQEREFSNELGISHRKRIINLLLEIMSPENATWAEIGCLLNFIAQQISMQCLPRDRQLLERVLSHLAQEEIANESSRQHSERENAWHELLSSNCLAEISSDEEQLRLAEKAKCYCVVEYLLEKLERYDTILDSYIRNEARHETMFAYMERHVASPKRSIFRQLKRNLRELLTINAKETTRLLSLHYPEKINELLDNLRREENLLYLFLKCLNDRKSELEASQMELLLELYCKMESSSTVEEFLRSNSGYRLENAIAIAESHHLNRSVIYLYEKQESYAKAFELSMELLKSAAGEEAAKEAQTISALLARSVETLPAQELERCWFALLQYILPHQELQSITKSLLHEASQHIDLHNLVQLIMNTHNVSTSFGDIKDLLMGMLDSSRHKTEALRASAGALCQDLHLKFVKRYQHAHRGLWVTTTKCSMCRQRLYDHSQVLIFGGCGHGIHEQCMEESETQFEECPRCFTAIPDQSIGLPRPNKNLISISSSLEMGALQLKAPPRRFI

T2: Vps8 (yeast two-hybrid fusion) (Drosophila melanogaster) (UniProt Q9VRX2)
T2 sequence: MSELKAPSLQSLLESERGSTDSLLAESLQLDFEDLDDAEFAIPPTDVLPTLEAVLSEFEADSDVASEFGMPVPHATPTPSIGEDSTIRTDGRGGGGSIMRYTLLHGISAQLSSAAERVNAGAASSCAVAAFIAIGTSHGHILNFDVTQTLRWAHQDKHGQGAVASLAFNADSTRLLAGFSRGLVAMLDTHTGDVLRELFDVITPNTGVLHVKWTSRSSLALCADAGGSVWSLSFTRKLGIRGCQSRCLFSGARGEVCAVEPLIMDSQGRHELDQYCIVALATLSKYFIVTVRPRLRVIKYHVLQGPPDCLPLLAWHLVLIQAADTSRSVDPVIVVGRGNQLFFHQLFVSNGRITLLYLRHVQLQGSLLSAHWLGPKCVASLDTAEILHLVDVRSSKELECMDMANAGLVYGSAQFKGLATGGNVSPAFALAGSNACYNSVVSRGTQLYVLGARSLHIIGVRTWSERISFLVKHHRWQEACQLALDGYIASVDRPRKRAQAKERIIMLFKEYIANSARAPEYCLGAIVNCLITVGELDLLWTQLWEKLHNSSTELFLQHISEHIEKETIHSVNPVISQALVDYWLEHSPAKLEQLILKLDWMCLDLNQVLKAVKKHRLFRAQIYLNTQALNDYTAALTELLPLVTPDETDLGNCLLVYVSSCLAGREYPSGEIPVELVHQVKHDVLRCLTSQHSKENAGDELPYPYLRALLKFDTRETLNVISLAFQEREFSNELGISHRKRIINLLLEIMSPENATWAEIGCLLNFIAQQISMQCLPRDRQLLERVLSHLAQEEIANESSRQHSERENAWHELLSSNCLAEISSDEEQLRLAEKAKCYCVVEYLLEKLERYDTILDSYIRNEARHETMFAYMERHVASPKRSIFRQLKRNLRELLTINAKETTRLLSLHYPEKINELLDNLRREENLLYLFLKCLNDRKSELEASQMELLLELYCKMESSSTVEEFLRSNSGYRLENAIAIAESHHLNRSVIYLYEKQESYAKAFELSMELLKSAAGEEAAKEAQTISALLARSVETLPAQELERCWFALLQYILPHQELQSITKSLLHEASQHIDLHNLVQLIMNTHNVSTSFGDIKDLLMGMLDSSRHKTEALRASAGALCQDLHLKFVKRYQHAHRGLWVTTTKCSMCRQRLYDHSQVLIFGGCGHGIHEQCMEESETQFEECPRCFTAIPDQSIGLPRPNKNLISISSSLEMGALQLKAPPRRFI


Key:
[1] = biological target: T1, Vps8-HA (Drosophila melanogaster); assay: co-IP; Vps8-HA precipitated with anti-HA beads from cleared lysates of vps8-HA; vps8^1/Df adults or larvae (w^1118 as control); lysis buffer 0.25% Triton X-100, 150 mM NaCl, 1 mM EDTA, 20 mM Tris-HCl pH 7.5; 4 hr at 4°C; western blot with anti-Car, anti-Dor, anti-Vps16A
[2] = biological target: T2, Vps8 (yeast two-hybrid fusion) (Drosophila melanogaster); assay: two-hybrid; pGADT7 AD and pGBKT7 BD fusions in yeast strain PJ69-4A; growth on Trp-, Leu-, Ade- plates; empty vectors as negative controls

Binder | binding [1] | binding [2]
Car/Vps33A (protein, UniProt Q9Y1I2 1-617) MFPHLKGHGQRVNLQLLQEAACRELLQQLDRIEGSKVIVLDETMIGPLDLVTRPKLFADRGIRLLALKPELHLPREVANVVYVMRPRVALMEQLAAHVKAGGRAAAGRQYHILFAPRRSCLCVSQLEVSGVLGSFGNIEELAWNYLPLDVDLVSMEMPNAFRDVSVDGDTSSLYQAAVGLVQLQRLYGRIPKIYGKGEFAHRVWEHAKQLGRDERTLYNGDKGVVDQLILLDRSIDLLSPLATQLTYEGLIDEFYGIRQNKLTLPAENFPSDGALPGGGGSGPRVEESQSLLGDTEKKTILLHSGEQLYAELRNKHFNEVTKLLARKAREIHVQMHATSQDKSVQEIKSFVENLLPQLMAQKKATSEHTAIAGLLHEQVNAVRFADDLAAEQEFMVCADIDKPSAYIEDLIACRVELNRVLRLICMQCHAASGFKEKLLNHYKRELVHVYGLEVLLTISNLEKSGLLHLQTESRAYSVLRKTLHLTVDDNVEIEPKDISYVHSFYAPLTARIVEHSLKPLGWQTLKSQINNLPGPTFEDFQAQLVGIGGRHTVTTVSEGSLLNVPRVVLVCFVGGCTFAEIAALRFLAAQEDNNVEFLIATTKVVNKHSFLDSLMSS | binds | 
Dor/Vps18 (protein, UniProt Q24314 1-1002) MDTSMPNQPKFLPRIEHNSSGATANSYVATASGNPFETDEEDEIFSRHKMVLRVPSNCTGDLMHLAVSRNWLVCLLGTPERTTLLRFFLPRAIPPGEAVLEKYLSGSGYKITRMFLDPTGHHIIIALVPKSATAGVSPDFLYIHCLESPQAQQLKVRRIEKFKDHEITAVAFNPYHGNESSTGPILLGTSRGLIFETELNPAADGHVQRKQLYDLGLGRPKYPITGLKLLRVPNSSRYIIVVTSPECIYTFQETLKAEERSLQAIFAGYVSGVQEPHCEERKTDLTFSQLRFFAPPNSKYPKQWAWLCGEGIRVGELSIEANSAATLIGNTLINLDFEKTMHLSYGERRLNTPKAFVLTEYHAVLLYADHVRAICLLNQEQVYQEAFDEARVGKPLSIERDELTGSIYVYTVKTVFNLRVTREERNVWRIYLDKGQYELATAHAAEDPEHLQLVLCQRADAAFADGSYQVAADYYAETDKSFEEVCLKFMVLPDKRPIINYVKKRLSRVTTKPMETDELDEDKMNIIKALVIWLIDLYLIQINMPDKDEEWRSSWQTEYDEFMMEAHVLSCTRQNRETVRQLIAEHADPRNMAQFAIAIGDYDEVVAQQLKAECYAEALQTLINQRNPELFYKYAPELITRLPKPTVDALMAQGSRLEVEKLVPTLIIMENREQREQTQRYLEFAIYKLNTTNDAIHNFLLHLYAEHEPKLLMKYLEIQGRDESLVHYDIYYAHKVCTDLDVKEARVFLECMLRKWISAVDLALTFDMKLAKETASRPSDSKIRRKLWLRIAYHDIKGTNDVKKALNLLKECDLLRIEDLLPFFADFEKIDNFKEAICDALRDYNQRIQELQREMAETTEQTDRVTAELQQLRQHSLTVESQDTCEICEMMLLVKPFFIFICGHKFHSDCLEKHVVPLLTKEQCRRLGTLKQQLEAEVQTQAQPQSGALSKQQAMELQRKRAALKTEIEDILAADCLFCGLLISTIDQPFVDDWEQVNVEWE | binds | 
Vps16A (protein, UniProt Q9VHG1 1-833) MPIMYNTGEWFKVRPDYYRKVELATPDWPLDLDLEYMWVEVAPYGGPLAVTRDPTKLVPVKGNARPMIRIFDTTGREMGHILWNHGKLIAMGWSDMEELICIQENATVFVYDMFGREKESYSIGDEASVTKIVEGKVFQSSAGTGVAVMTTSGRVFLKQNSSKTERKLPDIPNSSMNCSCWEIVTEGRNSYCLLGRDREVIKLFPGETVGTITANLFEKPHERIIKISVSYNHQHLALYTNTGLLWLGSVDMRQKYCEFDTGRKDMPLQMEWIMNSDNSEADAVVISYPSYLLIVNRNADRSDFPYDPVMFLVAEMDGVRIITQSSHEIIQRLPKCVENIFAVNSQEPASYLFEAQKKFEEKSYKSDEYLSMCREKIDLAVSECIEAASYEFCPETQKSLLRTAYFGKGFIRNHNPDEYMRIMRILRVLNTLRHERIAMPITFKQFSHLNTEVILSRLVFRKHYAIAIQVAKHLNLPESWILEHWAYHKVMNDPNDTEVARKITEKFKNPSVEGISFCNIASKAHQAGRDDLAIKLLELESRASLHVPLLLKMRKFDRAVGSATQSGDTELITQVLLEMKMHMMLSNLHMTIRDHPLALNIYKKIMRESNRAGLYGIYNTEDDQKAIAEYHFQNAIETEGLESNLSMIGNAYAQGRCTLEAELCADTSRLIKLQKTLSTKYNVSLNGLSIHETIQELLLIGELKEAERIRSEFKVPDRRFWWLRILTLSSQHKWEELEKLAKSKKSPIGYDPFVEVCLKQDNVMEARKYIPRCRDNRRVVWYMRANLFNEAIDSAFEQRDVHSLFELQKNQAIVNNGTLLSKVCDCIAMLEGK | binds | 
Dor/Vps18 (yeast two-hybrid fusion) (protein, UniProt Q24314 1-1002) MDTSMPNQPKFLPRIEHNSSGATANSYVATASGNPFETDEEDEIFSRHKMVLRVPSNCTGDLMHLAVSRNWLVCLLGTPERTTLLRFFLPRAIPPGEAVLEKYLSGSGYKITRMFLDPTGHHIIIALVPKSATAGVSPDFLYIHCLESPQAQQLKVRRIEKFKDHEITAVAFNPYHGNESSTGPILLGTSRGLIFETELNPAADGHVQRKQLYDLGLGRPKYPITGLKLLRVPNSSRYIIVVTSPECIYTFQETLKAEERSLQAIFAGYVSGVQEPHCEERKTDLTFSQLRFFAPPNSKYPKQWAWLCGEGIRVGELSIEANSAATLIGNTLINLDFEKTMHLSYGERRLNTPKAFVLTEYHAVLLYADHVRAICLLNQEQVYQEAFDEARVGKPLSIERDELTGSIYVYTVKTVFNLRVTREERNVWRIYLDKGQYELATAHAAEDPEHLQLVLCQRADAAFADGSYQVAADYYAETDKSFEEVCLKFMVLPDKRPIINYVKKRLSRVTTKPMETDELDEDKMNIIKALVIWLIDLYLIQINMPDKDEEWRSSWQTEYDEFMMEAHVLSCTRQNRETVRQLIAEHADPRNMAQFAIAIGDYDEVVAQQLKAECYAEALQTLINQRNPELFYKYAPELITRLPKPTVDALMAQGSRLEVEKLVPTLIIMENREQREQTQRYLEFAIYKLNTTNDAIHNFLLHLYAEHEPKLLMKYLEIQGRDESLVHYDIYYAHKVCTDLDVKEARVFLECMLRKWISAVDLALTFDMKLAKETASRPSDSKIRRKLWLRIAYHDIKGTNDVKKALNLLKECDLLRIEDLLPFFADFEKIDNFKEAICDALRDYNQRIQELQREMAETTEQTDRVTAELQQLRQHSLTVESQDTCEICEMMLLVKPFFIFICGHKFHSDCLEKHVVPLLTKEQCRRLGTLKQQLEAEVQTQAQPQSGALSKQQAMELQRKRAALKTEIEDILAADCLFCGLLISTIDQPFVDDWEQVNVEWE |  | binds
